Activity change, negative = more quenching (active) data for 54 compounds are collected here from PubChem BioAssay AID743402 (Broad Institute, 2014).

About 140 (12%) of roughly 1,200 compounds were called active.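 How the source made its calls: active means fitted curve falls past -35% activity change at a dose under twice the top valid dose, in every replicate test; inconclusive means replicate tests disagree on the call; inactive means the rest, including activity in the opposite direction.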 Most of the strongest results are missing from this list.

The nature of this test: CFTR-F508del correctors, dose response, FRT cells, YFP quenching, cherry-pick (AID 743402).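 Further: compounds act as correctors raising surface CFTR-F508del before acute activation.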 The note with it: FRT CFTR-F508del YFP iodide quenching, 24 h, channel opened with forskolin and a potentiator; at 26 µM (top of the series) unless noted.
On to `Cc1cccc(NC(=O)c2ccccc2NC(=O)C2CCCCC2)c1C`, for which the activity change, negative = more quenching (active) is inactive: -6.67%.

For `CCCCNc1c(-c2ccc(SC(C)CC)c(OC)c2)nc2ccc(C)cn12` (centres undefined), the activity change, negative = more quenching (active) was inactive: 12.9%.

Take `COc1ccc(NC(=O)c2cc(C3CC3)on2)c(OC)c1`: the activity change, negative = more quenching (active) was inactive: 10%.

Take `COc1ccc(-c2cc(C(F)F)n3ncc(C(=O)N4CCc5ccccc54)c3n2)cc1`: the activity change, negative = more quenching (active) is inactive: -16.7%.

`Cc1nc(N)[nH]c(=O)c1CCCNS(=O)(=O)c1ccc([N+](=O)[O-])cc1`: the activity change, negative = more quenching (active) is inactive: 11.5%.

As to `O=C(Cc1ccc(Br)cc1)NCc1ccccc1`, the activity change, negative = more quenching (active) was inactive: -3.12%.

Take `O=C(N/N=C/c1c(O)ccc2ccccc12)C(=O)N1CCCC1`: the activity change, negative = more quenching (active) is inactive: 3.33%.

Consider `Cc1cc2c(cc1C)C(c1ccccc1OC(C)C)CC(=O)N2` (centres undefined), for which the activity change, negative = more quenching (active) is inactive: 8.01%.

On to `Cc1ccc(-c2ccc3c(c2)O[C@H](CN(C)Cc2ccccn2)[C@@H](C)CN([C@@H](C)CO)S3(=O)=O)cc1`, for which the activity change, negative = more quenching (active) is inactive: 3.57%.

`COc1ccc2c3c(n(C)c2c1)[C@H](CO)N(C(=O)C1CC1)CC31CCN(Cc2cccc(F)c2)CC1`: the activity change, negative = more quenching (active) is inactive: -7.14%.

Take `Cc1c(C)c2c(OCC(=O)N3CCC(O)CC3)cc3c(c2oc1=O)CCC(C)(C)O3`: the activity change, negative = more quenching (active) was inactive: 13.1%.

In the case of `Cc1cc2nnc(SCC(=O)NCc3ccco3)n2c2ccccc12`, the activity change, negative = more quenching (active) is inactive: 10%.

As to `Cc1ccc2nc(-c3ccc4c(c3)OCCO4)cn2c1`, the activity change, negative = more quenching (active) was inactive: -13.3%.

`C[C@H]1CN([C@@H](C)CO)S(=O)(=O)c2ccc(C#CC3CCCCC3)cc2O[C@H]1CN(C)Cc1cccnc1`: the activity change, negative = more quenching (active) was inactive: 0%.

With `COc1cc(C(=O)Nc2ccc(C)cc2)c2ccccc2n1`, the activity change, negative = more quenching (active) was inactive: -1.61%.

For the compound `Cn1cc(C(=O)N/N=C/c2ccc3c(c2)OCO3)c2ccccc21`, the activity change, negative = more quenching (active) was inactive: -10%.

Turning to `CC(=NNC(=S)Nc1ccc(C)cc1)c1ccccn1`, the activity change, negative = more quenching (active) was inactive: -3.12%.

In the case of `N=C1/C(=C/c2cccn2CCOc2ccccc2)C(=O)N=C2SC=C(c3ccccc3)N12`, the activity change, negative = more quenching (active) is inactive: -19.4%.

As to `O[Si](CCCN1CCCCC1)(c1ccc(F)cc1)C1CCCCC1` (centres undefined), the activity change, negative = more quenching (active) was inactive: 0%.

As to `C[C@H](CO)N1C[C@H](C)[C@H](CN(C)C(=O)NC2CCCC2)Oc2cc(C#Cc3ccc(F)cc3)ccc2S1(=O)=O`, the activity change, negative = more quenching (active) was inactive: -7.14%.

On to `CC(C)c1ccc(NC(=O)CN2C(=O)NC3(CCCCCCC3)C2=O)cc1`, for which the activity change, negative = more quenching (active) is inactive: 9.79%.

Take `CCOc1ccccc1NC(=O)CC1SC(=N)N(c2ccccc2)C1=O` (centres undefined): the activity change, negative = more quenching (active) is inactive: 12.9%.

In the case of `CCOC(=O)N1CCC(NC(=O)c2ccc3c(c2)N=C(C)c2c(C)ccc(C)c2S3)CC1`, the activity change, negative = more quenching (active) was inactive: 3.12%.

For the compound `COCC(C)n1c(SCC(=O)N2CC(=O)Nc3ccccc32)nc2ccccc2c1=O` (centres undefined), the activity change, negative = more quenching (active) was inactive: 3.33%.

Take `O=C(NN=C1CCCC1)c1[nH]c2ccc(Cl)cc2c1-c1ccccc1`: the activity change, negative = more quenching (active) is inactive: 16.7%.

For the compound `COc1cc(C(c2sc3nc(C)nn3c2O)N2CCN(c3ccccc3)CC2)cc(OC)c1OC` (centres undefined), the activity change, negative = more quenching (active) was inactive: 0%.

Regarding `COc1ccc(O)c(/C=N/NC(=O)c2ccc(N3CCCC3=O)cc2)c1`, the activity change, negative = more quenching (active) was inactive: 3.33%.

`Oc1ccc2ccccc2c1C=NNc1ccccn1`: the activity change, negative = more quenching (active) was inactive: -13.3%.

For `C[C@@H]1CN([C@@H](C)CO)S(=O)(=O)c2ccc(C#Cc3ccc(F)cc3)cc2O[C@H]1CN(C)C(=O)c1ccccn1`, the activity change, negative = more quenching (active) was inactive: 22.9%.

On to `CC1(C)Cc2c(c(-c3ccco3)nc3sc4c(NCCN5CCOCC5)ncnc4c23)CO1`, for which the activity change, negative = more quenching (active) is inactive: -6.67%.

Regarding `CCC(=O)N1[C@H](CN(CC)C(C)=O)[C@@H](c2ccc(-c3ccccc3)cc2)[C@@H]1CO`, the activity change, negative = more quenching (active) was inactive: 10.5% [at 23.5 µM].

With `O=C(Nc1ccc(F)cc1)N1CCCCN2[C@H](C1)[C@H](c1ccc(-c3cccc(F)c3)cc1)[C@@H]2CO`, the activity change, negative = more quenching (active) is inactive: 6.46%.

Regarding `COc1ccc(C)cc1NC(=O)CNC(c1ccccc1)c1ccc(C)cc1` (centres undefined), the activity change, negative = more quenching (active) is inactive: -3.33%.

`Cc1ccc(-c2ccc3c(c2)O[C@H](CN(C)Cc2ccccn2)[C@@H](C)CN([C@H](C)CO)S3(=O)=O)cc1`: the activity change, negative = more quenching (active) is inactive: -7.14%.

As for `CN(CCOc1ccc(Cl)cc1)C(=O)c1cccc(S(=O)(=O)N2CCN(c3ccccc3)CC2)c1`, the activity change, negative = more quenching (active) was inactive: 12.5%.

With `COc1cc(SC)ccc1C(=O)N1CCN(c2ccccc2OC)CC1`, the activity change, negative = more quenching (active) was inactive: 15.6%.

`COc1cccc2cc(C(=O)NCCN3CCOCC3)c(=O)oc12`: the activity change, negative = more quenching (active) is inactive: 6.67%.

Consider `CCCC(=O)NC(c1ccc(N(C)C)cc1)c1ccc2cccnc2c1O` (centres undefined), for which the activity change, negative = more quenching (active) was inactive: 10.7%.

With `Cc1ccc(S(=O)(=O)N2CCN(C(=O)CN(Cc3ccco3)Cc3cccs3)CC2)cc1`, the activity change, negative = more quenching (active) was inactive: 13.4%.

For the compound `Cc1ccc(NC(=O)COc2ccc(Br)cc2CO)cc1S(=O)(=O)N1CCOCC1`, the activity change, negative = more quenching (active) was inactive: 18.1%.

Turning to `COC(=O)CSC1=C(C#N)C(c2ccc(C)o2)CC(=O)N1` (centres undefined), the activity change, negative = more quenching (active) was inactive: -3.33%.

In the case of `Nc1sc(-c2ccccc2)cc1-c1n[nH]c(=S)n1C1CCCCC1`, the activity change, negative = more quenching (active) was inactive: 0%.

Consider `COc1cc(-c2cnc3c(NC=O)cc(-c4cccc(C(F)(F)F)c4)cn23)cc(OC)c1OC`, for which the activity change, negative = more quenching (active) is inactive: 18.8%.

In the case of `CCCCC(=NCCc1c(C)[nH]c2ccccc12)C1=C(O)CC(c2ccccc2)CC1=O` (centres undefined), the activity change, negative = more quenching (active) is inactive: 16.4%.

Regarding `Cc1cc2c(cc(C(=O)OC(C)C(=O)NCc3ccc(F)cc3)n2C)o1` (centres undefined), the activity change, negative = more quenching (active) is inactive: 26.7%.

For the compound `Cc1cnc(NC(=O)CCc2ccccc2)s1`, the activity change, negative = more quenching (active) is inactive: -10%.

`CC(C)(C)c1cc(C(=O)NN)n(Cc2ccc(Cl)cc2Cl)n1`: the activity change, negative = more quenching (active) is inactive: 6.67%.

In the case of `C#Cc1ccc(NC(=O)C2(C)CCN2C(=O)c2cc(C)n(C)n2)cc1` (centres undefined), the activity change, negative = more quenching (active) is inactive: 16.7%.

Take `O=C(CSc1nnc(Cn2c(=O)sc3ccccc32)n1-c1ccccc1)NCc1ccco1`: the activity change, negative = more quenching (active) is inactive: 10%.

Consider `O=C(Nc1cc(F)ccc1F)N1CC(=O)N2[C@@H](CO)[C@H](c3ccc(C#CC4CCCCC4)cc3)[C@@H]2C1`, for which the activity change, negative = more quenching (active) was inactive: 6.46%.

Take `Cc1ccc(N(C)S(=O)(=O)c2ccc(-c3cnc(C4CC4)o3)cc2)cc1`: the activity change, negative = more quenching (active) was inactive: 6.67%.

As for `CCCNC(=O)N1C[C@@H]2[C@H](c3ccccc31)[C@H](CO)N2Cc1ccc(OC)cc1`, the activity change, negative = more quenching (active) was inactive: 0%.

With `O=C(COC(=O)C1CCC1)Nc1cc(S(=O)(=O)N2CCOCC2)ccc1Cl`, the activity change, negative = more quenching (active) was inactive: 13.9%.

`CCOc1ccc2[nH]c(C(=O)N/N=C/c3ccc(OC)cc3)cc2c1`: the activity change, negative = more quenching (active) is inactive: -10%.
